# Results as given in patent publication US20250179481A1, “COMPOSITIONS AND METHODS FOR TARGETING, EDITING, OR MODIFYING GENES” (Celyntra Therapeutics SA, priority 2021, published 2025).
# Some results were stated once for a whole list of compounds, not compound by compound.
# Tests used:
# TCR = TCR antibody staining and flow cytometry of RNP-transfected Jurkat cells; type: cell-based, human; settings: RNP nucleofection, flow cytometry
# TCR/CD3E = assay: Functional KO in Pan T-cells: TCR and CD3E surface expression by antibody staining; type: cell-based, human; settings: regular and dual gRNAs with ssODNs
substance,measurement,setting,value
"gTRBC1_2_003: gRNA targeting both TRBC1 and TRBC2; dual form Targeter_TRBC1_2_003 UUGUAGAUAGCCAUCAGAAGCAGAGAUCU (dual-guide targeter with IDT AltR2 3' modification, chemistry undefined, further chemistry not given here)",TCR negative cells,TCR,more than 90%
same,negative TCR/CD3E cell population (functional KO),TCR/CD3E,> 90%
